Experimental findings from PubChem BioAssay AID2685 (National Center for Advancing Translational Sciences (NCATS), 2010) are described below.

The nature of the assay: qHTS Assay for Lipid Storage Modulators in Drosophila S3 Cells.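 For cell number change: cells counted by Cell Tracker Red CMTPX staining in the red channel.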 The note with it: BODIPY lipid droplet fluorescence, 18-24 h; for cell number change: measured here: cell count max response, cells fed with added oleic acid. Put shortly:
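Drosophila S3 cells loaded with oleic acid (400 uM, as added) and compounds at several concentrations; lipid droplets imaged by 488-nm laser-scanning cytometry, 500–530 nm intensity and object ratio to cell channel. Percent activity normalized to 20 uM Triacsin C.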

The mark [1] stands for this setting: measured here: lipid fluorescence (Fed channel) AC50, cells fed with added oleic acid.
Where [2] appears, read: measured here: cell number channel AC50, cells fed with added oleic acid.

Some of the results follow. The main result of the screen is listed elsewhere. These columns were measured beside it and carry no call. Compounds called inactive in the main read-out are mostly missing here. Words in brackets tell the shape of the fitted curve; partial curves, single points and poor fits give uncertain potencies.

In general, AC50 refers to the midpoint of the concentration-response curve, whichever way the signal moves. Read a high AC50 as weaker potency. Regarding `O=C1OC(/C(=C\Nc2ccccc2)[N+](=O)[O-])c2ccccc21` (stereo unspecified), the cell number change was -15.4%. Further, the AC50 under setting [1] is 36.6 µM [falling, partial curve, poor fit]. On to `CCN1CCN(c2cc(SC(C)C)nc(-c3ccc(OC)cc3)n2)CC1`, for which the cell number change was -26.2%. The AC50 under setting [1] was 7.31 µM [falling, single point].

With `COc1ccccc1NC(=O)Cn1cc(C(=O)C(=O)N2CCOCC2)c2ccccc21`, the cell number change is 22.9%.

Consider `Cn1c(C(=O)NN)cc2cc(Oc3ccccc3)ccc21`, for which the cell number change was -5.49%. Moreover, the AC50 under setting [1] was 0.92 µM [rising, full curve]. Consider `O=C(N/N=C/c1ccc(OCc2ccccc2)cc1)c1ccc(O)cc1`, for which the cell number change was -11.8%. Also, the AC50 under setting [1] was 0.517 µM [rising, single point].

For the compound `Cc1nc(C(=O)NC2CCOCC2)sc1C1(C)CC(c2ccccc2)=NO1` (stereo unspecified), the cell number change came to 8.26%. Moreover, under setting [1], the AC50 was 0.00411 µM [rising, full curve, poor fit]. Regarding `CC(=O)N/C(=C\c1ccc(Br)s1)C(=O)O`, the cell number change worked out at 32.2%. For the compound `CC(=C/c1ccccc1)/C=N/n1c(C)n[nH]c1=S`, the cell number change is -5.82%. Also, under setting [1], the AC50 is 29.1 µM [rising, single point]. For the compound `COc1ccc(CCn2c(C)cc(C(=O)COC(=O)c3cnccn3)c2C)cc1`, the cell number change came to 17.9%. For the same compound, the AC50 under setting [1] was 11.6 µM [rising, partial curve, poor fit]. `COc1ccc(-c2coc3cc(O)cc(O)c3c2=O)cc1OC`: the cell number change was -12.1%. Also, the AC50 under setting [1] is 4.11 µM [falling, full curve, poor fit]. For the compound `CC(=O)Oc1c(-c2ccco2)oc2ccccc2c1=O`, the cell number change was -3.28%. Turning to `Cc1ccccc1N(CC(=O)NCC1CCCO1)C(=O)CCC(=O)Nc1nccs1` (stereo unspecified), the cell number change turned out to be 9.57%. Also, under setting [1], the AC50 was 2.91 µM [rising, single point].

Regarding `Clc1cc2nc(-c3cccnc3Cl)[nH]c2cc1Cl`, the cell number change was determined as 21.7%. Under setting [1], the AC50 is 1.84 µM [rising, single point]. As to `O=C(COC(=O)/C=C/c1ccc(F)cc1)Nc1ccc(Cl)cn1`, under setting [1], the AC50 was 6.51 µM [rising, single point].

As for `CCC(C)N=Cc1c(NCc2ccco2)nc2c(C)cccn2c1=O` (stereo unspecified), the cell number change is -20.2%. Besides, under setting [1], the AC50 was 0.206 µM [rising, full curve, poor fit]. Regarding `CCCC1(C(=O)O)NC(c2cccc(OC)c2O)C2C(=O)N(c3ccccc3)C(=O)C21` (stereo unspecified), the cell number change was 8.32%. For the compound `Cc1ccc(NCN2C(=O)C3CC=C(Cl)CC3C2=O)cc1` (stereo unspecified), the cell number change is -35.7%. The AC50 under setting [2] was 4.11 µM [falling, full curve, poor fit]. For the same compound, the AC50 under setting [1] was 0.92 µM [falling, full curve]. As for `CS(=O)(=O)N1CCN(C(=S)NCc2ccc(F)cc2)CC1`, the cell number change is -67.1%. Further, the AC50 under setting [2] is 25.9 µM [falling, partial curve]. For the same compound, the AC50 under setting [1] is 1.16 µM [falling, full curve, poor fit]. On to `CCN(Cc1ccccc1)C(=O)CN1C(=O)NC2(CC(C)CC(C)(C)C2)C1=O` (stereo unspecified), for which the cell number change was 30.9%. The AC50 under setting [2] is 16.4 µM [rising, partial curve, poor fit]. As for `CCc1ccc2nc(Nc3nc(COC)cc(=O)[nH]3)nc(C)c2c1`, the cell number change is -23.9%. On to `CCCCNC(=O)c1ccc(SCC(=O)N(CC)CC)c([N+](=O)[O-])c1`, for which the cell number change is 8.28%. Besides, the AC50 under setting [1] is 0.103 µM [rising, full curve, poor fit]. Take `Nc1cc(=O)[nH]c(SCCSc2ccc(F)cc2)n1`: the AC50 under setting [1] is 29.1 µM [falling, single point]. Take `COc1ccccc1CNCC(=O)Nc1ccc(C#N)cc1`: the cell number change came to 12.7%. In the case of `COc1cc(C2NC(=O)CCC2[N+](=O)[O-])c(OC)cc1Br` (stereo unspecified), the cell number change is 11.1%. Turning to `O=C(c1ccncc1)N1CCN(C(=O)c2cccs2)CC1`, the cell number change is -24.6%. In addition, the AC50 under setting [1] is 10.3 µM [falling, partial curve].

For the compound `O=C(CNCc1cccs1)Nc1cc(S(=O)(=O)N2CCCC2)ccc1Cl`, the cell number change stood at 18%. For `Cc1ccccc1NC(=O)c1ccc(Nc2c([N+](=O)[O-])cc([N+](=O)[O-])c3ccccc23)cc1`, the cell number change was -8.17%. Also, the AC50 under setting [1] was 29.1 µM [falling, single point].

Regarding `Cc1ccccc1NC(=O)C1CCC(C)(C(=O)O)C1(C)C` (stereo unspecified), the cell number change was -18.9%. Moreover, under setting [1], the AC50 is 25.9 µM [falling, single point]. `CN1CCN(CC(=O)N2c3ccccc3Sc3ccccc32)CC1`: the cell number change is -6.57%. Besides, the AC50 under setting [1] is 0.731 µM [falling, full curve]. Regarding `Cc1ccnc(NC(=O)CCC(=O)N(Cc2ccco2)C(C(=O)NC(C)C)c2ccc(F)cc2)c1` (stereo unspecified), the cell number change worked out at 4.58%. The AC50 under setting [1] was 0.103 µM [falling, single point].

As for `O=C(CN(C(=O)CCC(=O)Nc1nccs1)c1ccc(F)cc1)NCC1CCCO1` (stereo unspecified), the cell number change amounted to 12.6%. Further, the AC50 under setting [1] is 7.31 µM [rising, partial curve]. On to `CC(C)(C)c1ccc(C(=O)NCc2nnc(SCC(=O)NCc3ccco3)o2)cc1`, for which the cell number change is -18.1%. The AC50 under setting [1] was 35.5 µM [falling, single point]. In the case of `CC1(C)CC(N2CCCCC2)=CC(=[N+]2CCCCC2)C1`, the AC50 runs as follows: under setting [2], 0.184 µM [falling, full curve, poor fit]; under setting [1], 0.411 µM [falling, single point].

On to `COc1ccc(N(CC(=O)NCc2cccs2)S(=O)(=O)c2c(C)nn(C)c2C)cc1`, for which the cell number change worked out at 59.2%. Also, the AC50 under setting [2] is 2.91 µM [rising, single point]. Further, under setting [1], the AC50 is 0.13 µM [rising, single point]. Consider `CCC(NC(=O)Nc1nccs1)(C(F)(F)F)C(F)(F)F`, for which the cell number change was -56.2%. Further, under setting [2], the AC50 is 18.4 µM [falling, partial curve]. Moreover, the AC50 under setting [1] is 29.1 µM [falling, single point]. With `CCC(=O)Nc1ccc(S(=O)(=O)N2CCCCC2)cc1OC`, the cell number change was 84.1%. Under setting [2], the AC50 is 8.2 µM [rising, partial curve, poor fit]. For the same compound, the AC50 under setting [1] was 0.92 µM [rising, partial curve]. On to `O=C(Cc1ccccc1)NCC(=O)Nc1ccc(OC(F)(F)F)cc1`, for which the cell number change was found to be 17.5%. Moreover, the AC50 under setting [1] is 16.4 µM [rising, partial curve, poor fit]. As for `CCN(CC)C(=O)c1sc(NC(=O)c2cccc([N+](=O)[O-])c2)c(C#N)c1C`, the cell number change is -11.4%. For the same compound, the AC50 under setting [1] was 6.51 µM [falling, single point]. On to `CCOC(=O)C(=O)/C(C#N)=C/Nc1ccccc1`, for which the cell number change came out at 38.8%. Moreover, the AC50 under setting [2] was 18.4 µM [rising, single point]. Further, the AC50 under setting [1] was 1.03 µM [falling, full curve]. Consider `COc1ccc(Cl)cc1NC(=O)CN(C)C(=O)c1ccc(-n2nc(C)cc2C)cc1`, for which the cell number change is -6.45%. Further, the AC50 under setting [1] is 0.0206 µM [rising, single point]. As to `O=C(Nc1ccc(F)cc1)N(Cc1ccco1)Cc1cc2cc3c(cc2[nH]c1=O)OCO3`, the AC50 under setting [2] was 2.91 µM [rising, partial curve]. Consider `Cn1cc(CNC(=O)c2cc(-c3ccccc3)nc3ccc(Br)cc23)cn1`, for which the cell number change was -54.2%. Moreover, under setting [2], the AC50 is 29.1 µM [falling, single point]. Further, the AC50 under setting [1] was 1.3 µM [falling, partial curve]. Take `CC(C(=O)N1CCOCC1)N1C(=O)C2C3C=CC(C4CC34)C2C1=O` (stereo unspecified): the cell number change turned out to be 4.46%. With `COc1ccccc1-n1cnc(N)c1C(C)=O`, the cell number change was -8.71%. For the same compound, under setting [1], the AC50 was 0.651 µM [falling, single point]. Take `O=C(Nc1ccc(N2CCOCC2)cc1)c1ccc2nc(-c3ccco3)c(-c3ccco3)nc2c1`: the cell number change was -26.1%. Under setting [1], the AC50 is 29.1 µM [falling, single point].

Turning to `Cc1ccc(S(=O)(=O)N(C)c2ccc(OC(=O)c3ccc(N4CCCC4=O)cc3)cc2)cc1`, the cell number change is -7.43%. Turning to `CC/C(=N/Nc1cccc(C)c1)c1cnnc(SC)n1`, the cell number change amounted to 2.77%. Further, the AC50 under setting [2] is 7.31 µM [rising, single point]. Further, the AC50 under setting [1] was 3.66 µM [falling, partial curve]. Consider `Cc1ccc(C(=O)N(Cc2nnc(-c3ccc(Cl)cc3)o2)C2CC2)o1`, for which the cell number change turned out to be 30.3%. Under setting [1], the AC50 was 4.61 µM [falling, partial curve]. In the case of `S=C(NCCc1ccccc1)NCCN1CCOCC1`, the cell number change worked out at 19.4%. Further, the AC50 under setting [2] is 0.116 µM [rising, full curve, poor fit]. Besides, under setting [1], the AC50 was 18.4 µM [rising, partial curve]. Regarding `COc1ccc2nc(SCC(=O)Nc3ccc4sc(C)nc4c3)c(C#N)cc2c1`, the AC50 under setting [1] was 0.731 µM [rising, single point]. For the compound `COc1ccc(OCC(=O)Nc2sc3c(c2C(=O)NCC2CCCO2)CCC3)cc1` (stereo unspecified), the cell number change is 25.3%.

`CC(C)c1ccc(C(O)c2nc3ccccc3n2C)cc1` (stereo unspecified): the cell number change was -25.2%. Further, the AC50 under setting [1] was 29.1 µM [falling, single point]. As for `CC(=O)c1cnc(Nc2nc(C)c3cccc(C)c3n2)nc1C`, the cell number change worked out at 14.4%. Also, the AC50 under setting [1] is 3.66 µM [rising, full curve, poor fit]. For the compound `CCCc1[nH]nc2c1C(CCC)C(C#N)=C(N)O2` (stereo unspecified), the cell number change is -0.748%.

As for `O=C(NC(=S)Nc1ccc2[nH]c(=O)[nH]c2c1)c1cncc(Br)c1`, the cell number change is -29.2%. For the same compound, the AC50 under setting [2] was 0.731 µM [falling, full curve, poor fit]. For the same compound, the AC50 under setting [1] was 0.461 µM [falling, full curve]. As for `O=C(NCC(c1ccco1)N1CCc2ccccc21)C(=O)Nc1ccccc1` (stereo unspecified), the AC50 under setting [1] was 29.1 µM [rising, single point]. `CC(C)(C)NC(=O)c1ccc(C(=O)NC(C)(C)C)cc1`: the cell number change worked out at 2.61%. Besides, under setting [1], the AC50 is 6.51 µM [rising, single point]. For the compound `COCCCNc1nc2ccccc2nc1NS(=O)(=O)c1ccc(OC)cc1`, the cell number change is 9.8%. For the same compound, the AC50 under setting [1] is 7.31 µM [rising, partial curve, poor fit]. Consider `Cc1ccc2c(c1)N(CCCC(=O)NCC1COc3ccccc3O1)C(=O)CO2` (stereo unspecified), for which the cell number change stood at 141%. Also, the half-maximal activity concentration (AC50) under setting [2] was 29.1 µM [rising, partial curve, poor fit]. `CN(CC(=O)Nc1ccc(F)cc1)C(=O)CSc1nncs1`: the cell number change is 9.76%. Under setting [1], the AC50 was 0.82 µM [rising, full curve, poor fit].

`O=C(O)C1CSC2(c3ccc(F)cc3)CCC(=O)N12` (stereo unspecified): the cell number change was found to be 16.3%. Moreover, the AC50 under setting [1] is 0.0058 µM [rising, full curve].

As to `C=CCn1c(SCC(=O)c2ccc(NS(=O)(=O)c3ccccc3)cc2)nnc1-c1cccs1`, the cell number change came out at 16.8%.
